The list is a part of this screen's results and no random one: it is rich in T/C values a quarter to a half above the control, in often repeated tests (any T/C) and in doses without a T/C. Further doses and runs are listed elsewhere. T/C is the treated group as % of the vehicle group. Some doses have a count of surviving animals in place of a T/C: the source files T/C as zero there, which appears to mark a toxic dose or a test without result, not a measured value. Some doses without a T/C left all or most animals alive at the check, yet need not have been tolerated: the source hardly ever lists a survival T/C far under the control, and the zero likely stands for such cases as well. Counts of survivors are from the toxicity check (mostly the fifth day) where no day follows; animals may have died later. Schedule codes are those of the source, read here as Q, the interval in days (D) or hours (H), X, the number of doses. Some doses were run more than once; their values stand side by side, smallest first. Some structures stand for samples that the source files as different forms (salt, stereo form or complex); doses refer to the form tested. Where survival is the endpoint, this PubChem deposit counts one and a half times the control or more as active, and values a quarter to a half above the control carry no call in these data; other NCI protocols may use other cut-offs. Some T/C values carry the count of animals alive at the toxicity check (mostly the fifth day); where none is given, no animal had died by that day.
Tested on: P388 leukemia ip, CD2F1 mice, survival T/C
Assay: NCI In Vivo Anticancer Drug Screen. Data for tumor model P388 Leukemia (intraperitoneal) in CD2F1 (CDF1) mice
Conditions: T/C endpoint: median survival time, higher T/C = longer survival
[1] = dose: 200.0 mg/kg/injection, schedule: Q01DX005 (ip), vehicle: saline
[2] = dose: 400.0 mg/kg/injection, schedule: Q01DX001 (ip), vehicle: Klucel (hydroxypropylcellulose) (HPC)

## CN=C(NC)c1ccc(NC(=O)Nc2ccc(C)c(NC(=O)Nc3ccc(C(=NC)NC)cc3)c2)cc1
dose: 12.5 mg/kg/injection, schedule: Q01DX005 (ip), vehicle: suspension in saline
  survivor count: 3 of 6
dose: 25.0 mg/kg/injection, schedule: Q01DX005 (ip), vehicle: suspension in saline
  survivor count: 0 of 6
dose: 50.0 mg/kg/injection, schedule: Q01DX005 (ip), vehicle: suspension in saline
  survivor count: 0 of 6
dose: 100.0 mg/kg/injection, schedule: Q01DX005 (ip), vehicle: suspension in saline
  survivor count: 0 of 6
dose: 200.0 mg/kg/injection, schedule: Q01DX005 (ip), vehicle: suspension in saline
  survivor count: 0 of 6

## C=Cc1ccccc1 (tested in a mixture with another compound)
dose: 50.0 mg/kg/injection, schedule: Q01DX005 (ip), vehicle: saline
  survivor count: 0 of 6
dose: 100.0 mg/kg/injection, schedule: Q01DX001 (ip), vehicle: Klucel (hydroxypropylcellulose) (HPC)
  survivor count: 0 of 6
dose: 100.0 mg/kg/injection, schedule: Q01DX005 (ip), vehicle: saline
  survivor count: 0 of 6
dose: 200.0 mg/kg/injection, schedule: Q01DX001 (ip), vehicle: Klucel (hydroxypropylcellulose) (HPC)
  survivor count: 0 of 6
[1]
  survivor count: 0 of 6
[2]
  survivor count: 0 of 6

## Cc1cnc2c(N)nn(-c3ccccc3)c2n1
dose: 400.0 mg/kg/injection, schedule: Q04DX003 (ip), vehicle: saline with Tween-80
  survivor count: 3 of 6

## Cc1ccc(N=C(N=C(NC(=O)c2ccccc2)c2ccccc2)c2ccccc2)cc1
dose: 100.0 mg/kg/injection, schedule: Q01DX009 (ip), vehicle: saline with Tween-80
  survivor count: 6 of 6
dose: 200.0 mg/kg/injection, schedule: Q01DX009 (ip), vehicle: saline with Tween-80
  survivor count: 6 of 6

## CCCCNC(=O)OCc1ccc(NCCN(CC)CC)c2c(=O)c3ccccc3sc12
dose: 6.25 mg/kg/injection, schedule: Q01DX005 (ip), vehicle: distilled water + Tween-80
  T/C: 135 % of control
dose: 12.5 mg/kg/injection, schedule: Q01DX005 (ip), vehicle: distilled water + Tween-80, evaluated on day 30
  T/C: 103, 112, 116 % of control
dose: 12.5 mg/kg/injection, schedule: Q01DX005 (ip), vehicle: distilled water + Tween-80, evaluated on day 35
  T/C: 104 % of control
dose: 25.0 mg/kg/injection, schedule: Q01DX005 (ip), vehicle: distilled water + Tween-80, evaluated on day 30
  T/C: 114 and 128 % of control
dose: 25.0 mg/kg/injection, schedule: Q01DX005 (ip), vehicle: distilled water + Tween-80, evaluated on day 35
  T/C: 129 % of control [5 of 6 alive]
dose: 25.0 mg/kg/injection, schedule: Q01DX005 (ip), vehicle: distilled water + Tween-80
  survivor count: 6 of 6
dose: 50.0 mg/kg/injection, schedule: Q01DX005 (ip), vehicle: distilled water + Tween-80
  survivor count: 3 of 6 and 6 of 6
dose: 100.0 mg/kg/injection, schedule: Q01DX005 (ip), vehicle: distilled water + Tween-80
  survivor count: 0 of 6
dose: 200.0 mg/kg/injection, schedule: Q01DX005 (ip), vehicle: distilled water + Tween-80
  survivor count: 0 of 6

## CSc1cccc(NC(=O)OCCOc2ccc(Br)cc2)c1
dose: 50.0 mg/kg/injection, schedule: Q01DX009 (ip), vehicle: Klucel (hydroxypropylcellulose) (HPC)
  survivor count: 6 of 6
dose: 100.0 mg/kg/injection, schedule: Q01DX009 (ip), vehicle: Klucel (hydroxypropylcellulose) (HPC)
  survivor count: 6 of 6
dose: 200.0 mg/kg/injection, schedule: Q01DX009 (ip), vehicle: Klucel (hydroxypropylcellulose) (HPC)
  survivor count: 6 of 6

## Cn1cccc1/C=N/N1CC(=O)N(c2cccc(Cl)c2)CC1=O
dose: 200.0 mg/kg/injection, schedule: Q01DX005 (ip), vehicle: saline with Tween-80
  survivor count: 1 of 6

## CCC1CCCCN1C (configuration not stated)
dose: 100.0 mg/kg/injection, schedule: Q01DX009 (ip), vehicle: saline
  survivor count: 1 of 6
[1]
  survivor count: 1 of 6

## COc1ccc2nc3cc(Cl)ccc3c(NCCCCN3CCCC3)c2n1
dose: 50.0 mg/kg/injection, schedule: Q01DX009 (ip), vehicle: water
  survivor count: 4 of 6
dose: 100.0 mg/kg/injection, schedule: Q01DX009 (ip), vehicle: water
  survivor count: 1 of 6
dose: 200.0 mg/kg/injection, schedule: Q01DX009 (ip), vehicle: water
  survivor count: 1 of 6

## COc1cc(CO)c(I)c(OC)c1OC
[2]
  survivor count: 3 of 6

## CCC1CCC2CCOCN2C1 (configuration not stated)
[1]
  survivor count: 2 of 6

## Cc1cccc(NN=O)n1
dose: 6.25 mg/kg/injection, schedule: Q01DX009 (ip), vehicle: water
  T/C: 141 % of control
dose: 12.5 mg/kg/injection, schedule: Q01DX009 (ip), vehicle: water
  T/C: 144 and 149 % of control
dose: 25.0 mg/kg/injection, schedule: Q01DX009 (ip), vehicle: water
  survivor count: 6 of 6
